From the supplement of paper PMC9877034 come the findings set out here.

The structures appear in SMILES notation. Where a name gives a salt, the structure may show the parent alone. Whole data set: some 1,000 compounds, median “cFRET/donor change relative to DMSO, normalised to beta-lapachone positive control (supercomplex I-IV assembly)” near 0.18, cut for the lowest 2% near -1. This is one part of the list.

This test deals with C2C12 (NDUFB8-AcGFP / COX8A-DsRed-Monomer FRET reporter). Kind of test: cFRET/donor change relative to DMSO, normalised to beta-lapachone positive control (supercomplex I-IV assembly) (fraction of beta-lapachone effect); higher = more respiratory supercomplex assembly. The settings on record: 40 µM; 24 h. The protocol:
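Cells were treated with 40 uM compound for 24 h and imaged on an IN Cell Analyzer 6000. Corrected FRET was divided by donor signal (cFRET/donor) and measured in two replicate experiments. The score is (mean cFRET/donor of compound - mean DMSO) / (mean beta-lapachone 40 uM - mean DMSO). Compounds flagged for prominent cell death, abnormal morphology or decreased cell number were excluded.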
`CC1=Nc2ccc(Cl)cc2S(=O)(=O)N1` [Diazoxide] showed a cFRET/donor change of -0.0731.

Molecule `Cc1ccc(Cl)c(Nc2ccccc2C(=O)O)c1Cl` [Meclofenamic acid sodium] returned a cFRET/donor change of 0.255.

`CCCCCCCCCCCCCCCC(=O)OC[C@H](COP(=O)(O)OCCNC(=O)[C@H](C)NC(=O)CC[C@@H](NC(=O)[C@H](C)NC(=O)[C@@H](C)O[C@H]1[C@H](O)[C@@H](CO)OC(O)[C@@H]1NC(C)=O)C(N)=O)OC(=O)CCCCCCCCCCCCCCC` (some centres undefined) [Mifamurtide] had a cFRET/donor change of -0.0931.

For `Cn1c(=O)c2nc[nH]c2n(C)c1=O` [Theophylline], the cFRET/donor change is 0.334.

`CN(C)CCC(c1ccc(Cl)cc1)c1ccccn1` (single isomer, unassigned; (+)) [(+)-Chlorpheniramine maleate] had a cFRET/donor change of 0.378.

`Cc1scc2c1N(C(=O)CN1CCN(C)CC1)c1ccccc1NC2=O` [Telenzepine dihydrochloride] had a cFRET/donor change of -0.254.

For the molecule `Cc1cc2c(cc1Cl)N(C(=O)Nc1ccc(Oc3cccnc3C)nc1)CC2`, the cFRET/donor change is -1.37.

For `O=C(N[C@@H](Cc1ccccc1)C(=O)CCl)OCc1ccccc1` [Z-L-Phe chloromethyl ketone], the cFRET/donor change turned out to be 0.144.

On to `CCSC(=N)N` [S-Ethylisothiourea hydrobromide], for which the cFRET/donor change was found to be 0.396.

On to `CC(=O)c1ccc(S(=O)(=O)NC(=O)NC2CCCCC2)cc1` [Acetohexamide], for which the cFRET/donor change came out at 0.4.

With `Nc1ncn([C@@H]2O[C@H](CO)[C@@H](O)[C@H]2O)c(=O)n1` [5-azacytidine], the cFRET/donor change was found to be 0.0634.

For `CCCNC(C)C(=O)Nc1ccccc1C` (centres undefined) [Prilocaine hydrochloride], the cFRET/donor change amounted to 0.324.

`COc1ccc(CN(CCN(C)C)c2ccccn2)cc1` [Pyrilamine maleate] came in with a cFRET/donor change of 0.225.

Turning to `CNC(=O)c1cc2c(cn1)[nH]c1ccccc12` [N-Methyl-beta-carboline-3-carboxamide], the cFRET/donor change was -0.445.

Take `CCC(=O)N1CCN(C(=O)c2ccccc2)CC1`: the cFRET/donor change was 0.181.

`OC[C@H]1O[C@H]([S-])[C@H](O)[C@@H](O)[C@@H]1O.[Au+]` [Aurothioglucose] displayed a cFRET/donor change of -0.0527.

Turning to `CCCN[C@H]1CCc2nc(N)sc2C1` [Pramipexole dihydrochloride], the cFRET/donor change is 0.161.

Take `O=C1CCC(c2ccc(-n3ccnc3)cc2)=NN1` [Imazodan]: the cFRET/donor change is 0.0699.

For the molecule `Cn1c(=O)c(-c2c(Cl)cccc2Cl)cc2cnc(Nc3ccc(N4CCOCC4)cc3)nc21`, the cFRET/donor change was -0.227.

On to `NC(CCCP(=O)(O)O)C(=O)O` (racemic) [(±)-2-Amino-5-phosphonopentanoic acid], for which the cFRET/donor change is -0.122.

`NCC(O)c1ccc(O)c(O)c1` (racemic) [(±)-Norepinephrine (+)bitartrate] showed a cFRET/donor change of -0.03.

`CCCCOC(=O)NS(=O)(=O)c1sc(CC(C)C)cc1-c1ccc(Cn2c(CC)nc3c(C)cc(C)nc32)cc1` had a cFRET/donor change of 0.261.

Molecule `FC(F)(F)c1ccccc1-n1ccnc1` [1-[2-(Trifluoromethyl)phenyl]imidazole] registered a cFRET/donor change of 0.0226.

For the molecule `COc1cccc(NC(=O)/C=C/c2ccc(Cl)cc2)c1`, the cFRET/donor change is 0.185.

For the molecule `CO/N=C(\C(=O)N[C@@H]1C(=O)N2C(C(=O)O)=C(CSc3nc(=O)c(O)nn3C)CS[C@H]12)c1csc(N)n1` [Ceftriaxone sodium], the cFRET/donor change is 0.564.

With `CC(C)(C)NC[C@H](O)COc1nsnc1N1CCOCC1` [S(-)-Timolol maleate], the cFRET/donor change was 0.246.

`CC(N)=O` [Acetamide] displayed a cFRET/donor change of 0.115.

Consider `CC(N)(C(=O)O)c1ccc(C(=O)O)cc1` (racemic) [(±)-alpha-Methyl-4-carboxyphenylglycine], for which the cFRET/donor change turned out to be 0.395.

Consider `CC(C)NCC(O)COc1ccc(COCCOC(C)C)cc1` (centres undefined) [Bisoprolol hemifumarate salt], for which the cFRET/donor change was determined as 0.00652.

For `O=C1NC(=O)[C@@]2(CCOc3ccc(F)cc32)N1` [Sorbinil], the cFRET/donor change came out at 0.297.

With `CCc1cccc(N(C)C(=N)Nc2cccc3ccccc23)c1`, the cFRET/donor change was determined as 0.203.

The molecule `CN(C)CCN(Cc1cccs1)c1ccccn1` [Methapyrilene hydrochloride] registered a cFRET/donor change of 0.34.

In the case of `NC(=O)N1c2ccccc2C=Cc2ccccc21` [Carbamazepine], the cFRET/donor change amounted to 0.241.

As to `CCOC(=O)C1=C(C)NC(C)=C(C(=O)OCC)C1c1c(F)c(F)c(F)c(F)c1F` [Nemadipine-A], the cFRET/donor change stood at 0.483.

`COc1ccccc1CNC1CCCNC1c1ccccc1` (centres undefined) returned a cFRET/donor change of 0.266.

In the case of `O=c1cc(-c2ccc(O)cc2)oc2cc(O)cc(O)c12` [Apigenin], the cFRET/donor change is -1.74.

`CCCCCN(CCCOC)C(=O)C(CCC(=O)O)NC(=O)c1ccc(Cl)c(Cl)c1` (centres undefined) [Loxiglumide]: the cFRET/donor change worked out at 0.0112.

In turn, `C[C@@H](N)[C@H]1CC[C@H](C(=O)Nc2ccncc2)CC1` had a cFRET/donor change of 0.226.

In the case of `c1cnc2cc3c(cc2n1)[C@@H]1CNC[C@H]3C1` [Varenicline tartrate], the cFRET/donor change stood at 0.22.

For `CCn1cc(C(=O)O)c(=O)c2ccc(C)nc21` [Nalidixic acid sodium], the cFRET/donor change worked out at 0.151.

The molecule `Cc1cccc(/C=C/c2ccccc2)n1` had a cFRET/donor change of 0.662.

`C#CCN(C)Cc1ccccc1` [Pargyline hydrochloride] gave a cFRET/donor change of 0.215.

Molecule `O=c1[nH]c2ccccc2c2ccccc12` [6(5H)-Phenanthridinone] yielded a cFRET/donor change of -0.194.

The molecule `O=C(CCCN1CC=C(n2c(=O)[nH]c3ccccc32)CC1)c1ccc(F)cc1` [Droperidol] came in with a cFRET/donor change of 1.08.

With `CCN(CC)CCNC(=O)c1cc(S(C)(=O)=O)ccc1OC` [Tiapride hydrochloride], the cFRET/donor change was -0.134.

`COc1nc(C)nc(Cl)c1NC1=NCCN1` [Moxonidine hydrochloride] yielded a cFRET/donor change of 0.0702.

In the case of `N#CC(C#N)=C(N)/C(C#N)=C/c1ccc(O)cc1` [Tyrphostin AG 112], the cFRET/donor change came out at 0.38.

`CCCCS(=O)(=O)N[C@@H](Cc1ccc(OCCCCC2CCNCC2)cc1)C(=O)O` [Tirofiban hydrochloride monohydrate] registered a cFRET/donor change of 0.174.

`NCCS(=O)(=O)O` [Taurine] had a cFRET/donor change of -0.02.

As to `COc1cc2nc(N3CCN(C(=O)c4ccco4)CC3)nc(N)c2cc1OC` [Prazosin hydrochloride], the cFRET/donor change stood at 0.439.

The molecule `c1ccc(C(NCCNC(c2ccccc2)c2ccccc2)c2ccccc2)cc1` yielded a cFRET/donor change of 0.0957.

`COc1ccc(C(=O)NCc2cccnc2)cc1C(=O)NCc1cccnc1` [Picotamide] displayed a cFRET/donor change of -0.0166.

For `CC(C)c1cccc(C(C)C)c1N1C(=O)c2ccc(O)cc2C1=O`, the cFRET/donor change is -0.574.

For the molecule `COc1ccc2[nH]cc(CCNC(C)=O)c2c1` [Melatonin], the cFRET/donor change was 0.372.

`CN1C2CCCC1CC(NC(=O)c1nn(C)c3ccccc13)C2` (centres undefined) [Granisetron hydrochloride] had a cFRET/donor change of 0.333.

Turning to `OC(CCN1CCCCC1)(c1ccccc1)C1CC2C=CC1C2` (centres undefined) [Biperiden hydrochloride], the cFRET/donor change stood at 0.472.

For `CCN(Cc1ccncc1)C(=O)C(CO)c1ccccc1` (centres undefined) [Tropicamide], the cFRET/donor change was -0.179.

Take `N=C(N)c1ccccc1` [Benzamidine hydrochloride]: the cFRET/donor change is 0.0148.

For the molecule `CCCCCc1ccc(/C=C/C(=O)Nc2cc(Cl)ccc2C(=O)O)cc1`, the cFRET/donor change worked out at 0.0865.

The molecule `COc1cc(OC)c(C=C2C(=O)Nc3ccccc32)c(OC)c1` displayed a cFRET/donor change of 0.382.

`O=c1oc(Cl)c(Cl)c2ccccc12` [3,4-Dichloroisocoumarin] displayed a cFRET/donor change of 1.94.

The molecule `NCCCCCCCCCCN` [1,10-Diaminodecane] registered a cFRET/donor change of 0.307.

As for `OCCN1CCN(CCCN2c3ccccc3Sc3ccc(Cl)cc32)CC1` [Perphenazine], the cFRET/donor change is 0.48.

Regarding `CN(C)CCc1c[nH]c2ccc(Cn3cncn3)cc12` [Rizatriptan benzoate salt], the cFRET/donor change came to 0.115.
